Test results: the supplement of paper PMC10849652
The list shows a part of the results.

Protein sequences, listed by entry. Tags and fused reporters are not part of them. Lines headed by an entry give the natural chain unless they say otherwise; changes in a name come on top.
UniProt Q8NCF5: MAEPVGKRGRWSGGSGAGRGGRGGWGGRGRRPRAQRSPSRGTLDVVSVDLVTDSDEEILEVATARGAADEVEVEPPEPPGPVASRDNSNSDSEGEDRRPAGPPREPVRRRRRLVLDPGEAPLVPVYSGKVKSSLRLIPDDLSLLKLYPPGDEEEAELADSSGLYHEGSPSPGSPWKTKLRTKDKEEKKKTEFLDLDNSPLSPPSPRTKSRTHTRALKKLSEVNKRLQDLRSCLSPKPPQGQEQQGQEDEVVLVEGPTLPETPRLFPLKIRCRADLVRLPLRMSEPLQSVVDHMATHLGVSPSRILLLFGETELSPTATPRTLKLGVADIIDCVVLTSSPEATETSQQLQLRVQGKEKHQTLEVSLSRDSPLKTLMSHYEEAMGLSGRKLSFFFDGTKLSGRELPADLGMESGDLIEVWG
UniProt P21359: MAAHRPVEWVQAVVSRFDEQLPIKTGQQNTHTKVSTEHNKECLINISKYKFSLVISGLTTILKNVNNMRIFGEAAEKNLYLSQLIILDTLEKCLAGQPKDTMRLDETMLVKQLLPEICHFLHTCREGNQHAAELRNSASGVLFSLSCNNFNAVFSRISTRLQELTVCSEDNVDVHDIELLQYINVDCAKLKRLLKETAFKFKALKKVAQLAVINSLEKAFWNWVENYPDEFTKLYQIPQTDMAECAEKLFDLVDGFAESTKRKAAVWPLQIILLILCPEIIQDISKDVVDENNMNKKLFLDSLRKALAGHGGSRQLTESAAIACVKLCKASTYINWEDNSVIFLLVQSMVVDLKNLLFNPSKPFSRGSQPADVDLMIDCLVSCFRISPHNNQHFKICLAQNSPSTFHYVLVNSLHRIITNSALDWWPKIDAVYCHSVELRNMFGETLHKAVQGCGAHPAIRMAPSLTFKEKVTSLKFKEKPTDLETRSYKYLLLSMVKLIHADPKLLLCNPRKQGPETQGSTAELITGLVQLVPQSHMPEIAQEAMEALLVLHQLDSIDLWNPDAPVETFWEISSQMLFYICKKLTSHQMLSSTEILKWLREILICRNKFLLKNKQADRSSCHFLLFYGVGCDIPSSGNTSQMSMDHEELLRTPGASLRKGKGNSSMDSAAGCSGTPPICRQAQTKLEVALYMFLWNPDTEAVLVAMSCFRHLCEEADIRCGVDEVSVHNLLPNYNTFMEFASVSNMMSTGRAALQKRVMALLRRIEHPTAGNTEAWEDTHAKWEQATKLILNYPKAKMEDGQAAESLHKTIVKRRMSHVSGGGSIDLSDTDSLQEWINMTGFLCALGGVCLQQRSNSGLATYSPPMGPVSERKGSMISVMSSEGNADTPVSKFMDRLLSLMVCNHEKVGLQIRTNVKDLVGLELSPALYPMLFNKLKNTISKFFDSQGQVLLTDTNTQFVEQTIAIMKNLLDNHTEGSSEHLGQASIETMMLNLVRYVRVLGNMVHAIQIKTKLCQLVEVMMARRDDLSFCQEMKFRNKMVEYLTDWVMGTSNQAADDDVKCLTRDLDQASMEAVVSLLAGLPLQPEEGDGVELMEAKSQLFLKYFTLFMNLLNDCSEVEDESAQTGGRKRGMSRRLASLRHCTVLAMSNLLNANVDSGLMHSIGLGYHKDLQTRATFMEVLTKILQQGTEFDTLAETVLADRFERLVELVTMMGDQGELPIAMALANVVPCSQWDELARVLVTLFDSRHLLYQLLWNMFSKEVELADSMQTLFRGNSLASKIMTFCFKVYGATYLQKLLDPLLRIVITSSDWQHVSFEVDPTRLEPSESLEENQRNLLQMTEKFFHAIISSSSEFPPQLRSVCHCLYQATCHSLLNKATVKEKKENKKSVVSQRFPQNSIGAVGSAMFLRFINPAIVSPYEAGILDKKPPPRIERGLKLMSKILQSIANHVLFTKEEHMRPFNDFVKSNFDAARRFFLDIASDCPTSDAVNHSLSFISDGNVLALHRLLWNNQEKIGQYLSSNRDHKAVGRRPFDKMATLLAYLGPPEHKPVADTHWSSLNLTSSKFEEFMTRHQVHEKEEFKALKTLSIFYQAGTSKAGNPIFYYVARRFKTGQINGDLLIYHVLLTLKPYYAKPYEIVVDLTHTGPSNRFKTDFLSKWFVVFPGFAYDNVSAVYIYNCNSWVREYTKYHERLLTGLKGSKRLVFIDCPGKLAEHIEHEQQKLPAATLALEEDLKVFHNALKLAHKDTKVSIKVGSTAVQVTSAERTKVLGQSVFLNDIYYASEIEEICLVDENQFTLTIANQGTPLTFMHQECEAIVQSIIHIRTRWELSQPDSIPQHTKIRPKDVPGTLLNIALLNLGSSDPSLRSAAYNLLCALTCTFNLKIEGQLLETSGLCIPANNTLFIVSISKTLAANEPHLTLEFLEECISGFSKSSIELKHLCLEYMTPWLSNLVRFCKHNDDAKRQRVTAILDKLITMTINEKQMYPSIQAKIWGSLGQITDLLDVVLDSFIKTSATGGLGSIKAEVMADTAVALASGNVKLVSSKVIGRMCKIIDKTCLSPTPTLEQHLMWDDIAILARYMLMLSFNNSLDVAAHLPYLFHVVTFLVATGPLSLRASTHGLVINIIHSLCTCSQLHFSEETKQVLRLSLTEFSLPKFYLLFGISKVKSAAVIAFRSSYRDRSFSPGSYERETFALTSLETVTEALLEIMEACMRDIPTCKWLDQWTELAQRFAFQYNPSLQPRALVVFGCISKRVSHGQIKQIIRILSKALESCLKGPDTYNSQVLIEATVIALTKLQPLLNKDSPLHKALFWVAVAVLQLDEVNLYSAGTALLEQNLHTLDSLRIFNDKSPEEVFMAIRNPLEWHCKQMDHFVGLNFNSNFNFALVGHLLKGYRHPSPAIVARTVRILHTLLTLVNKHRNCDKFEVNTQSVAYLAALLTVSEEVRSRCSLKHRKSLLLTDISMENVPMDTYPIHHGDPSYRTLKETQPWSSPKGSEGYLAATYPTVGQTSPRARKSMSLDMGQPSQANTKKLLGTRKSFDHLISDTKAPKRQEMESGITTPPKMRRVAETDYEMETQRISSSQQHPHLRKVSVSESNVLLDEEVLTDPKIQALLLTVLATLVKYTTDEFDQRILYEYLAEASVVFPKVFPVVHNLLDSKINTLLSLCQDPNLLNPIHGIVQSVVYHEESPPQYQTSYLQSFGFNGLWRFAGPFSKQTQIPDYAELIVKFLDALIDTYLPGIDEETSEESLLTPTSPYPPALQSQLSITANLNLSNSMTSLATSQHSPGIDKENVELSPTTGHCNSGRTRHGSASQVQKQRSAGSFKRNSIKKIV
UniProt P30419: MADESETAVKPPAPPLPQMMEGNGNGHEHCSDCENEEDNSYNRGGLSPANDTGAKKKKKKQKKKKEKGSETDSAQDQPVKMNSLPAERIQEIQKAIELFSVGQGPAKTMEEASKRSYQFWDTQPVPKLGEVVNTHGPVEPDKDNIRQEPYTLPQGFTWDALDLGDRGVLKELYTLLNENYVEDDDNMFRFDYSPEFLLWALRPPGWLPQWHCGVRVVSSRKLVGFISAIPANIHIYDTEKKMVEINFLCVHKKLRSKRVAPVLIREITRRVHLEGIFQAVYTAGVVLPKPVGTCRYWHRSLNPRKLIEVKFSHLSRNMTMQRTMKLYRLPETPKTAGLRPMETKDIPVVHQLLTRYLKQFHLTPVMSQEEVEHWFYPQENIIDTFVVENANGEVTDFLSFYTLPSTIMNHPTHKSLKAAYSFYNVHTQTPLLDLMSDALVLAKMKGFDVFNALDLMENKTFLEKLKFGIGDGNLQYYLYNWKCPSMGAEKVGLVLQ
UniProt Q8TAT6: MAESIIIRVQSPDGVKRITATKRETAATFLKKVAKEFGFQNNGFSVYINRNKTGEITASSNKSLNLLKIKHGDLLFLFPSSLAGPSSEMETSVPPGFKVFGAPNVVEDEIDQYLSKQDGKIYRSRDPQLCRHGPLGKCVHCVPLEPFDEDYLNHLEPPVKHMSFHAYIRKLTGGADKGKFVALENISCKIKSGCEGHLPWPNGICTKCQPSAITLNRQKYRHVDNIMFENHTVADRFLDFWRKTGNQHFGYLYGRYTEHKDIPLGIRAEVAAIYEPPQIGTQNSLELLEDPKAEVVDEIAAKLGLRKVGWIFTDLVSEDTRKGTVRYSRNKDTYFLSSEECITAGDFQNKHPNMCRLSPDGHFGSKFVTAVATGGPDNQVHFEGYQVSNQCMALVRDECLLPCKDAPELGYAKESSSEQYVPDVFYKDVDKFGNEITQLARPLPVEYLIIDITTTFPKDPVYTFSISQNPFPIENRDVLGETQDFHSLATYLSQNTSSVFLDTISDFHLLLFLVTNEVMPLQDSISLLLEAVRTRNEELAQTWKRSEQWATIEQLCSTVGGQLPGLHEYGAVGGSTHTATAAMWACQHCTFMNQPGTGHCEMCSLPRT
UniProt Q86WQ0: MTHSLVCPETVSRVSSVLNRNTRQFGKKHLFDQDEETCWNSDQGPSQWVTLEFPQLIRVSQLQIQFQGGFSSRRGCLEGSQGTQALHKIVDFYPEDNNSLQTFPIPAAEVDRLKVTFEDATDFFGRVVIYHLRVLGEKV
UniProt Q9Y3C1: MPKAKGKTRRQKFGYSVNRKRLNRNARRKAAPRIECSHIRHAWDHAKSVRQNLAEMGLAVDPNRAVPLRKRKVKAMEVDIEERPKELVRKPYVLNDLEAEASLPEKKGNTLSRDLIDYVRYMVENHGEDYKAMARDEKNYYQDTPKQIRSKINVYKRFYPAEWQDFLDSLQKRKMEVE
UniProt Q9UHC9: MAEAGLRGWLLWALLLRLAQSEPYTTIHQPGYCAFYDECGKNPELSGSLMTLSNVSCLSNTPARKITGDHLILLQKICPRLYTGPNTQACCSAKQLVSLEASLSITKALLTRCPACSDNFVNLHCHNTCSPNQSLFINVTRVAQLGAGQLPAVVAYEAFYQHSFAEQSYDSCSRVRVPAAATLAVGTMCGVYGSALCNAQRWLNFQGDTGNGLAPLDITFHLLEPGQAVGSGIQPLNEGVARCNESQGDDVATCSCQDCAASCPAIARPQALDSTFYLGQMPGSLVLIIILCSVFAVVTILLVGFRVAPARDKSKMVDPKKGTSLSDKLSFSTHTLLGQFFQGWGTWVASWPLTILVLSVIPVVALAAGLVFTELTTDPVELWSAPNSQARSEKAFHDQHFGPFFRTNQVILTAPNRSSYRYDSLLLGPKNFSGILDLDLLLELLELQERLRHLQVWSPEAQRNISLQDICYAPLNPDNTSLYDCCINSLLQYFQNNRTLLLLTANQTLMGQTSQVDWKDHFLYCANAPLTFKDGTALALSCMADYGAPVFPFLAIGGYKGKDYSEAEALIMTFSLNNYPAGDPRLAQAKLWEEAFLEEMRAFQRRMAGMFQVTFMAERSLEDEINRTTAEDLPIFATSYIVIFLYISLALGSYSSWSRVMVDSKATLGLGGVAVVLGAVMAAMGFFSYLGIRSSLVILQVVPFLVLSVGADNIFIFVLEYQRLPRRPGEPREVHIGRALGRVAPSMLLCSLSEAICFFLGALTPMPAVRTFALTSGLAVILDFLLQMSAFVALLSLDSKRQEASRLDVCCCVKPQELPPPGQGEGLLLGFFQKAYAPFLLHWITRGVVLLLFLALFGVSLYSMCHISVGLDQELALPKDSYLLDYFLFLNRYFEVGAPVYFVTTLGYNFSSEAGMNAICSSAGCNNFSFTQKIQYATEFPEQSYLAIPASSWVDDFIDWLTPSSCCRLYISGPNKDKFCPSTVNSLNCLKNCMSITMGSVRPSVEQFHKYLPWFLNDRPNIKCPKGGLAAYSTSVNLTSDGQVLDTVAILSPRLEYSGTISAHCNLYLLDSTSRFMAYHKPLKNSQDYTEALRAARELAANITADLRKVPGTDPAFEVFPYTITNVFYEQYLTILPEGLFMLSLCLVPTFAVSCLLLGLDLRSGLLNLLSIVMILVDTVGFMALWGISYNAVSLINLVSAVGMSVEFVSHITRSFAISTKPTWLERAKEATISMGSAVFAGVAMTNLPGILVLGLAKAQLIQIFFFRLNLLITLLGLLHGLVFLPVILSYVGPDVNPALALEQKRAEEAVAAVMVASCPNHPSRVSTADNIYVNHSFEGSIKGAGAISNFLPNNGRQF
UniProt Q9UFN0: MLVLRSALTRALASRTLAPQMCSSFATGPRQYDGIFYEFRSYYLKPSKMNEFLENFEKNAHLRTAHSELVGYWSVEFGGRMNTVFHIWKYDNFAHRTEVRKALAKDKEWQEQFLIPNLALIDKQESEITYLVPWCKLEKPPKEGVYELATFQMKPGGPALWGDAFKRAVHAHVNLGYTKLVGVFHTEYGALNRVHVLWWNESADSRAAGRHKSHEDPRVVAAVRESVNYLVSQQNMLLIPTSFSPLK
UniProt Q9UMX5: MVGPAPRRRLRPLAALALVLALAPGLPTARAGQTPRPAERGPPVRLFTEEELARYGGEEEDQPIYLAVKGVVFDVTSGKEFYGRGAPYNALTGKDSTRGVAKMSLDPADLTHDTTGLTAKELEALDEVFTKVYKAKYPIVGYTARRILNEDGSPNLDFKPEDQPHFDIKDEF

Assays:
Experiment in all cases: log2 fold change, soluble protein after heating vs DMSO (PISA); higher = thermal stabilisation; K562 cells, 10 uM, 30 min; active = over 0.2 and 3.5 SD of the protein, either way, in both replicates (recomputed)
[1] = compound: CC1=C(C=C(C=C1)NC(=O)C2=CC(=CC=C2)C(C)(C)C#N)NC3=CC4=C(C=C3)N=CN(C4=O)C
How it was run: (§1)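 Quantification of soluble protein used TMTpro 16plex LC-MS/MS, with channel sums equalised. Samples were the supernatant after 21,000xg for 90 min of pooled aliquots from K562 cells (2×10^6 cells/mL) treated with 10 μM compound for 30 min, heated for 3 min over 48°C-58°C, and extracted in PBS with 0.5% NP-40 at 4°C. Values, from duplicates, describe thermal stability against control samples on a log2 fold-change scale.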

[2] = compound: CC1=C(C=C(C=C1)NC(=O)C2=CC(=CC=C2)N(C)C)NC(=O)C3=CC=C(C=C3)O
How it was run: as §1

[3] = compound: CC1=CC=C(C=C1)SC2=C3C=C(SC3=CN=C2)C(=O)N
How it was run: as §1

[4] = compound: CC1=NC(=CC=C1)C2=C(N=C(N2)C(C)(C)C)C3=CC4=NC=CN=C4C=C3
How it was run: as §1

Nexturastat A = compound: CCCCN(Cc1ccc(C(=O)NO)cc1)C(=O)Nc1ccccc1 [Nexturastat A]
How it was run: as §1

vemurafenib = compound: CCCS(=O)(=O)Nc1ccc(F)c(C(=O)c2c[nH]c3ncc(-c4ccc(Cl)cc4)cc23)c1F [vemurafenib]
How it was run: as §1

[5] = compound: CCCS(=O)(=O)Nc1ccc(F)c(C(=O)c2c[nH]c3ncc(Cl)cc23)c1F
How it was run: as §1

[6] = compound: CCCc1cc(C)[nH]c(=O)c1CNC(=O)c1cc(-c2ccnc(N3CCN(C)CC3)c2)cc2c1cnn2C(C)C
How it was run: as §1

givinostat = compound: CCN(CC)Cc1ccc2cc(COC(=O)Nc3ccc(C(=O)NO)cc3)ccc2c1 [givinostat]
How it was run: as §1

barasertib = compound: CCN(CCCOc1ccc2c(Nc3cc(CC(=O)Nc4cccc(F)c4)[nH]n3)ncnc2c1)CCOP(=O)(O)O [barasertib]
How it was run: as §1

Measured: log2 fold change

NIPSNAP2 (UniProt O75323)
inactive: [1] 0.06 | [2] -0.044 | [3] 0.055 | [4] 0 | Nexturastat A -0.072 | vemurafenib 0.06 | [5] 0.029 | [6] 0.007 | givinostat -0.081 | barasertib 0.019

NRBF2 (UniProt Q96F24)
inactive: [1] -0.017 | [2] -0.014 | [3] 0.032 | [4] 0.016 | Nexturastat A -0.046 | vemurafenib -0.024 | [5] 0.042 | [6] -0.046 | givinostat -0.009 | barasertib 0.071

NFATC2IP (UniProt Q8NCF5)
inactive: [1] -0.029 | [2] -0.026 | [3] 0.028 | [4] 0.013 | Nexturastat A 0.007 | vemurafenib -0.01 | [5] 0.014 | [6] 0.015 | givinostat 0.088 | barasertib 0.124

NFU1 (UniProt Q9UMS0)
inactive: [1] 0.001 | [2] 0.002 | [3] 0.046 | [4] 0.013 | Nexturastat A -0.042 | vemurafenib 0.054 | [5] -0.022 | [6] -0.018 | givinostat -0.022 | barasertib 0.02

NF1 (UniProt P21359)
inactive: [1] -0.152 | [2] -0.046 | [3] -0.216 | [4] -0.132 | Nexturastat A 0.116 | vemurafenib -0.088 | [5] -0.247 | [6] 0.013 | givinostat 0.039 | barasertib 0.084

NLRP2 (UniProt Q9NX02)
inactive: [1] -0.071 | [2] -0.008 | [3] 0.054 | [4] -0.019 | Nexturastat A 0.145 | vemurafenib 0.075 | [5] 0.078 | [6] 0.087 | givinostat 0.062 | barasertib 0.005

NPC2 (UniProt P61916)
inactive: [1] -0.038 | [2] 0.021 | [3] 0.141 | [4] -0.016 | Nexturastat A -0.01 | vemurafenib -0.039 | [5] -0.103 | [6] 0.014 | givinostat -0.016 | barasertib 0.046

NFATC3 (UniProt Q12968)
inactive: [1] 0.067 | [2] -0.506 | [3] 0 | [4] -0.055 | Nexturastat A 0.047 | vemurafenib -0.033 | [5] 0.094 | [6] 0.116 | givinostat 0.088 | barasertib 0.019

NELFB isoform 2 (UniProt Q8WX92)
inactive: [1] -0.026 | [2] -0.062 | [3] 0.035 | [4] 0.05 | Nexturastat A -0.032 | vemurafenib 0.06 | [5] 0.08 | [6] -0.007 | givinostat 0.069 | barasertib 0.046

NSDHL (UniProt Q15738)
inactive: [1] 0.073 | [2] -0.005 | [3] 0.029 | [4] -0.001 | Nexturastat A -0.111 | vemurafenib 0.07 | [5] -0.027 | [6] -0.031 | givinostat -0.013 | barasertib -0.004

NFYA (UniProt P23511)
inactive: [1] -0.034 | [2] 0.026 | [3] -0.004 | [4] -0.055 | Nexturastat A -0.163 | vemurafenib -0.021 | [5] -0.073 | [6] 0.031 | givinostat 0.046 | barasertib -0.051

NMT1 (UniProt P30419)
active: givinostat -0.284
inactive: [1] -0.012 | [2] -0.006 | [3] -0.012 | [4] 0.021 | Nexturastat A -0.036 | vemurafenib -0.013 | [5] 0 | [6] 0.023 | barasertib -0.015

NOL7 (UniProt Q9UMY1)
inactive: [1] -0.06 | [2] -0.055 | [3] -0.048 | [4] -0.193 | Nexturastat A 0.214 | vemurafenib -0.14 | [5] -0.121 | [6] 0.088 | givinostat 0.031 | barasertib -0.092

NFIC (UniProt P08651)
inactive: [1] -0.064 | [2] 0.076 | [3] -0.022 | [4] 0.008 | Nexturastat A 0.133 | vemurafenib -0.076 | [5] -0.013 | [6] -0.046 | givinostat -0.11 | barasertib -0.018

NPLOC4 isoform 2 (UniProt Q8TAT6)
inactive: [1] -0.032 | [2] 0.006 | [3] -0.018 | [4] 0.017 | Nexturastat A -0.027 | vemurafenib -0.022 | [5] 0.008 | [6] -0.016 | givinostat 0.034 | barasertib 0.017

NR2C2AP isoform 2 (UniProt Q86WQ0)
inactive: [1] -0.053 | [2] -0.068 | [3] -0.007 | [4] 0.082 | Nexturastat A -0.101 | vemurafenib -0.026 | [5] 0.066 | [6] -0.085 | givinostat -0.035 | barasertib -0.002

2 records picked at random from those above, as already listed:
NELFB isoform 2 (UniProt Q8WX92)
inactive: [1] -0.026 | [2] -0.062 | [3] 0.035 | [4] 0.05 | Nexturastat A -0.032 | vemurafenib 0.06 | [5] 0.08 | [6] -0.007 | givinostat 0.069 | barasertib 0.046

NPC2 (UniProt P61916)
inactive: [1] -0.038 | [2] 0.021 | [3] 0.141 | [4] -0.016 | Nexturastat A -0.01 | vemurafenib -0.039 | [5] -0.103 | [6] 0.014 | givinostat -0.016 | barasertib 0.046

Continuation.

NR2C2 isoform 2 (UniProt P49116)
inactive: [1] -0.017 | [2] 0.029 | [3] 0.114 | [4] -0.034 | vemurafenib -0.023 | [5] 0.03 | [6] 0.04 | givinostat -0.073 | barasertib 0.028
active: Nexturastat A -0.23

NPTN (UniProt Q9Y639)
inactive: [1] 0.011 | [2] 0.001 | [3] -0.033 | [4] -0.037 | Nexturastat A -0.053 | vemurafenib 0.013 | [5] -0.086 | [6] -0.041 | givinostat 0.047 | barasertib 0.006

NIFK (UniProt Q9BYG3)
inactive: [1] 0.003 | [2] 0.021 | [3] -0.171 | [4] -0.122 | Nexturastat A 0.305 | vemurafenib 0.026 | [5] 0 | [6] 0.11 | givinostat 0.177 | barasertib 0.039

NOP16 (UniProt Q9Y3C1)
inactive: [1] -0.143 | [2] 0.013 | [3] -0.085 | [4] -0.061 | Nexturastat A 0.259 | vemurafenib -0.15 | [5] -0.086 | [6] 0.12 | givinostat -0.024 | barasertib -0.085

NEU1 (UniProt Q99519)
inactive: [1] 0.031 | [2] -0.048 | [3] 0.029 | [4] 0.118 | Nexturastat A 0.068 | vemurafenib -0.002 | [5] -0.008 | [6] 0.057 | givinostat 0.036 | barasertib 0.059

NFYC (UniProt Q13952)
inactive: [1] 0.005 | [2] 0.011 | [3] -0.061 | [4] 0.019 | Nexturastat A -0.087 | vemurafenib -0.006 | [5] -0.001 | [6] -0.031 | givinostat 0.001 | barasertib 0.028

NMNAT1 (UniProt Q9HAN9)
inactive: [1] -0.079 | [2] 0.006 | [3] -0.09 | [4] -0.196 | Nexturastat A 0.132 | vemurafenib -0.162 | [5] -0.139 | [6] 0.178 | givinostat 0.042 | barasertib -0.064

NFATC1 (UniProt O95644)
inactive: [1] 0.021 | [3] 0.029 | Nexturastat A 0.177 | vemurafenib -0.072 | [5] 0.088 | [6] 0.218

NPC1L1 (UniProt Q9UHC9)
inactive: [1] -0.014 | [3] 0.152 | [4] 0.02 | vemurafenib -0.213 | [5] -0.109 | [6] 0.012 | barasertib -0.037

NOC2L (UniProt Q9Y3T9)
inactive: [1] -0.036 | [3] -0.193 | [4] 0.017 | Nexturastat A 0.096 | vemurafenib -0.004 | [5] 0 | [6] -0.02 | givinostat 0.049 | barasertib 0.094

NIT2 (UniProt Q9NQR4)
inactive: [1] -0.036 | [2] 0.027 | [3] 0.004 | [4] 0.02 | Nexturastat A -0.04 | vemurafenib -0.006 | [5] -0.028 | [6] -0.054 | givinostat -0.045 | barasertib 0.024

NFYB (UniProt P25208)
inactive: [1] -0.012 | [2] -0.118 | [3] -0.023 | [4] 0.025 | vemurafenib 0.026 | [5] 0.025 | [6] 0.044 | givinostat -0.012 | barasertib 0.049

NOMO1 (UniProt Q15155)
inactive: [1] 0.114 | [2] -0.003 | [3] -0.023 | [4] 0.041 | Nexturastat A 0.029 | vemurafenib 0.186 | [5] -0.179 | givinostat 0.159 | barasertib -0.158

NIPSNAP3A (UniProt Q9UFN0)
inactive: [1] -0.001 | [2] 0.013 | [3] -0.002 | [4] -0.019 | Nexturastat A 0.015 | vemurafenib 0.026 | [5] -0.02 | [6] -0.036 | givinostat 0.026 | barasertib 0.005

NENF (UniProt Q9UMX5)
inactive: [1] 0.005 | [2] -0.01 | [3] -0.035 | [4] -0.011 | Nexturastat A -0.105 | vemurafenib -0.002 | [5] -0.057 | [6] -0.008 | givinostat 0.057 | barasertib 0.036
